# Assay results: the supplement of paper PMC3334620
# In all, about 33,000 sequences were measured (“E-score (-0.5 to 0.5)”: median about -0.0034, highest 2% from about 0.25 on). The list shows a part of the results.
# Biological target: T1, Yap3 (UniProt P38749)
# T1 sequence: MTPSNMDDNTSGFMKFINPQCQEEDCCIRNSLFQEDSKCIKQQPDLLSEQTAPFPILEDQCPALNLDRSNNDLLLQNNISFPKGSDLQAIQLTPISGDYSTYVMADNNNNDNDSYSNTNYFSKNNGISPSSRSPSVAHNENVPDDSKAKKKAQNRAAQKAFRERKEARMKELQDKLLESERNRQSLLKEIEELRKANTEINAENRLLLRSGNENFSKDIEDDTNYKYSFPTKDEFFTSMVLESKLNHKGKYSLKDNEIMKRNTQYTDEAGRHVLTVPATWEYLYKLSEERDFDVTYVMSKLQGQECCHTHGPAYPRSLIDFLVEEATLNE
# Assay: PBM E-score (8-mer binding enrichment) (E-score (-0.5 to 0.5)); higher = stronger / more preferred TF binding
# Conditions: protein concentration: 100 nM; construct: GST-full length
# Description: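 Universal 'all 10-mer' protein binding microarrays (Agilent AMADID 015681) probed with GST-tagged S. cerevisiae TFs (full-length or DBD) made by in vitro transcription/translation (PURExpress), about 100-200 nM. Bound TF was detected with fluorescent anti-GST. Each ungapped 8-mer (which stands for itself and its reverse complement) is scored by the PBM enrichment score (E-score), a modified Wilcoxon-Mann-Whitney statistic from -0.5 to +0.5, computed with the Universal PBM Analysis Suite. Scale: above 0.35 generally sequence-specific binding.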
row,Sequence,PBM E-score
1,CGCTCCCA,-0.0586
2,GACAGGGA,-0.0649
3,CGAGTTAG,0.124
4,CCCGTAGG,-0.203
5,AAAGCGTT,0.0759
6,ACACTTAG,0.0439
7,GCAGTGGA,0.119
8,GATTACGA,0.291
9,AGCGGGAC,-0.231
10,GAAAGCAC,0.112
11,ATGAATCG,0.0879
12,AAGGCTAA,0.0588
13,GACTGCCC,-0.225
14,GATGGAGC,-0.108
15,GCATAACC,-0.0827
16,ATACCCGG,-0.151
17,CACTGGGG,-0.286
18,CAGACAAA,0.126
19,ATGGAAAC,0.0456
20,GTTTGTAA,0.0859
21,CCCAGATC,-0.231
22,ACATTCTG,-0.0885
23,CAAGAGTC,-0.0614
24,AACCGCCC,-0.184
25,CACAATGC,0.0947

row,Sequence,PBM E-score
1,CCTGCAGA,0.0188
2,GCGTCGTA,0.068
3,AACTATCG,-0.00863
4,GCGAGATA,0.187
5,CTATGACC,-0.0341
6,TCGGACCA,-0.0438
7,ACGAGAGC,-0.201
8,ACTAGCTA,0.00272
9,AGGGCTAA,0.0284
10,CACGGCTA,-0.102
11,CTGGCCTA,-0.12
12,GAGCAACA,-0.151
13,CGATCAAG,-0.0493
14,AGTTACTA,0.19
15,GACTAGGA,0.0497
16,ACTACACG,0.0255
17,ATCTTTTG,-0.0206
18,AGTTCTTC,0.0089
19,CCTTTCGA,-0.0865
20,GCGCTTTA,0.104
21,CGCTTCAA,0.0858
22,GCTGACAC,-0.0348
23,CATTCGTA,0.101
24,AGGGGTCA,-0.211
25,TACTCTAA,0.13

row,Sequence,PBM E-score
1,ACATCATG,-0.0583
2,ATGGCCCG,-0.0698
3,AAGGCTCA,-0.136
4,AAGTTGCC,-0.0508
5,AATAGTAA,0.258
6,AGCGGGGG,-0.236
7,CAGGCGAA,-0.0562
8,ACTGGGAG,-0.157
9,CGGCGAGC,0.0519
10,GCGATAAA,0.174
11,AACGCGCT,-0.012
12,CCACTGGC,-0.155
13,GCAAATTA,0.262
14,CCTGCAAG,-0.231
15,CGAAGACA,-0.0295
16,AGGCACTG,0.0224
17,TGACGGAA,0.166
18,AGAGCCCT,-0.176
19,ACAACACG,0.17
20,CCATACGG,-0.0632
21,TTAGGCAA,-0.107
22,AATTACAA,0.151
23,AACATAAA,0.156
24,GGGGACGA,-0.18
25,AGATTTAT,0.0637

row,Sequence,PBM E-score
1,CATCTGGG,-0.0567
2,GCTTAGCC,-0.147
3,ACAATCTA,0.016
4,GGGATGCA,-0.105
5,AGACACGA,0.108
6,TGACTGAA,-0.00521
7,AACTAGAG,0.0154
8,ATCTACCG,0.143
9,ACGGCTTA,0.0716
10,CGCACACC,-0.06
11,GATCTAAA,0.0637
12,GGGAGCGA,-0.174
13,ATCACTCA,0.0665
14,ACTAGAGG,-0.271
15,CCGAGTGA,0.0249
16,GACTCGCC,-0.0971
17,GATACTCA,0.0287
18,ACGAAATG,0.145
19,AGCAGAGA,-0.0117
20,GGCGAAAA,0.256
21,AGCGCCGC,0.0174
22,GTCGTCGA,-0.118
23,CACCCGAA,0.0804
24,AATGCCGA,0.0462
25,AGAAGGCA,-0.115

row,Sequence,PBM E-score
1,CCGAGCAC,0.0323
2,CCATCGCG,0.106
3,GCATTTAA,0.187
4,GAAGTCCA,-0.159
5,GACTAGCA,-0.168
6,AATCGAAT,0.25
7,GCCCAGGA,-0.229
8,TAACTATA,0.16
9,GCGGCAGC,-0.154
10,CTGCCGCA,-0.103
11,CTATAATC,0.191
12,ACGCTGTA,0.119
13,ACGTAGGA,-0.0175
14,CTTTAGAA,0.0391
15,AATTTGTG,0.148
16,AAGGACAA,0.0635
17,GGCAAGCC,-0.225
18,AAACTTCT,0.15
19,TAGCGCAA,0.0958
20,GCGTATTA,0.148
21,GTAGCGCA,-0.0637
22,CCGGCTAA,0.1
23,AACGCACT,0.0215
24,CTGGGACA,-0.0507
25,ATTAGTCG,0.12

# Look-ups from the entries so far:
# Entry for GATTACGA under PBM E-score: 0.291
# Entry for ACTACACG under PBM E-score: 0.0255
# Entry for GCCCAGGA under PBM E-score: -0.229

# Remaining list, next part.

row,Sequence,PBM E-score
1,CACATCAG,-0.149
2,GGGTAGTA,0.0247
3,AGTACGCC,-0.283
4,ACGGTCTC,-0.179
5,CCTAACAC,0.191
6,CGGCTTAG,-0.138
7,ACTCCCTA,-0.147
8,GACTTACA,-0.0187
9,CACTAGTA,0.103
10,GATGCCTA,-0.197
11,GCGGTGCC,-0.263
12,CCCGCTAA,-0.195
13,TAAATCGA,0.151
14,ACCAGGCC,0.0362
15,CAGTGGGG,-0.264
16,GAGGAAAC,0.0241
17,CTGCTGTC,-0.146
18,ATCGAGTC,-0.0569
19,ACCTATAA,0.0216
20,AACAGATA,0.172
21,AGCGCGGG,0.0204
22,CAACATTG,0.115
23,CCGAAGCA,0.0705
24,CGTGACAG,-0.154
25,CACCACAC,0.096

# At a glance, some entries already given.
row,Sequence,PBM E-score
9,ACGGCTTA,0.0716
10,CGCACACC,-0.06
11,GATCTAAA,0.0637
12,GGGAGCGA,-0.174
13,ATCACTCA,0.0665
14,ACTAGAGG,-0.271
15,CCGAGTGA,0.0249

# Next results follow.

row,Sequence,PBM E-score
1,ATCCGACA,0.0167
2,GACTTTCC,-0.0359
3,AGACGATG,0.0569
4,GCTGGATA,0.0666
5,ATCTGCAC,-0.0329
6,CATGTAGA,0.139
7,GGTGTATA,-0.162
8,AGTTTCGC,0.0657
9,ACCTTAAC,0.076
10,GATGCCAC,-0.201
11,ATTAAGAG,-0.0603
12,ACCAGCCC,-0.176
13,AACCGTCC,-0.213
14,CCTATATA,0.112
15,ACCCGACA,-0.0364
16,ATACGGGA,-0.138
17,CGATTGAC,0.0861
18,AGACTCCG,-0.0253
19,CAAGCTAA,-0.0766
20,ACGCCAGA,-0.0143
21,AAACAGTG,0.133
22,AGGGGAGG,-0.111
